{"source": "the supplement of paper PMC12542422", "key": {"[1]": {"system": "HeLa K (ENP1 immunofluorescence, +LMB)", "assay": "fraction of cells with nucleolar or nucleolar/nucleoplasmic ENP1 signal (MainHitrate); higher = more cells with nucleolar/nuclear readout signal (for ENP1 -LMB: less RNAPI inhibition; for +LMB ENP1 and RP reporters: stronger nuclear/nucleolar retention, i.e. ribosome biogenesis defect)", "conditions": "concentration: 1 µM; treatment time: 6 h; ENP1 +LMB; leptomycin B: 20 nM, last 1.5 h"}, "[2]": {"system": "HeLa K (ENP1 immunofluorescence, no LMB)", "assay": "fraction of cells with nucleolar or nucleolar/nucleoplasmic ENP1 signal (MainHitrate); higher = more cells with nucleolar/nuclear readout signal (for ENP1 -LMB: less RNAPI inhibition; for +LMB ENP1 and RP reporters: stronger nuclear/nucleolar retention, i.e. ribosome biogenesis defect)", "conditions": "concentration: 1 µM; treatment time: 6 h; ENP1 -LMB; leptomycin B: none"}, "[3]": {"system": "HeLa RPS2-YFP reporter", "assay": "fraction of reporter-positive cells with nuclear (nucleolar or nucleolar/nucleoplasmic) RPS2-YFP (MainHitrate); higher = more cells with nucleolar/nuclear readout signal (for ENP1 -LMB: less RNAPI inhibition; for +LMB ENP1 and RP reporters: stronger nuclear/nucleolar retention, i.e. ribosome biogenesis defect)", "conditions": "concentration: 1 µM; treatment time: 6 h"}, "[4]": {"system": "HeLa RPL29-GFP reporter", "assay": "fraction of reporter-positive cells with nuclear (nucleolar or nucleolar/nucleoplasmic) RPL29-GFP (MainHitrate); higher = more cells with nucleolar/nuclear readout signal (for ENP1 -LMB: less RNAPI inhibition; for +LMB ENP1 and RP reporters: stronger nuclear/nucleolar retention, i.e. ribosome biogenesis defect)", "conditions": "concentration: 1 µM; treatment time: 6 h"}}, "note": "Where a name gives a salt, the structure may show the parent alone. ± gives the standard deviation of the averaged measurements. This is one part of the list. These are raw signals, not scaled to a control.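 HeLa cells imaged for ribosome-assembly readouts (ENP1 staining with or without export block, or inducible tagged ribosomal protein reporters); machine learning classified each cell's signal location against solvent (DMSO) controls. Hits exceeded the DMSO false-positive mean by five standard deviations, then were visually confirmed; three biological replicates.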"}
{"smiles": "CCCOc1ccc2[nH]c(NC(=O)OC)nc2c1", "note": "[Oxibendazole]", "values": [{"measurement": "fraction", "setting": "[1]", "result": "0.0874 ± 0.11"}, {"measurement": "fraction", "setting": "[2]", "result": "0.991 ± 0.016"}, {"measurement": "fraction of reporter-positive cells with nuclear", "setting": "[3]", "result": "0.164 ± 0.085"}, {"measurement": "fraction of reporter-positive cells with nuclear", "setting": "[4]", "result": "0.274 ± 0.084"}]}
{"smiles": "Nc1ccc(S(N)(=O)=O)cc1", "note": "[Sulfanilamide]", "values": [{"measurement": "fraction", "setting": "[1]", "result": "0.076 ± 0.063"}, {"measurement": "fraction", "setting": "[2]", "result": "0.9983 ± 0.0029"}, {"measurement": "fraction of reporter-positive cells with nuclear", "setting": "[3]", "result": "0.0399 ± 0.021"}, {"measurement": "fraction of reporter-positive cells with nuclear", "setting": "[4]", "result": "0.209 ± 0.043"}]}
{"smiles": "CCOC(=O)O[C@]1(C(=O)OCCl)CC[C@H]2[C@@H]3CCC4=CC(=O)C=C[C@]4(C)[C@H]3[C@@H](O)C[C@@]21C", "note": "[Loteprednol etabonate]", "values": [{"measurement": "fraction", "setting": "[1]", "result": "0.0539 ± 0.032"}, {"measurement": "fraction", "setting": "[2]", "result": "0.9982 ± 0.0032"}, {"measurement": "fraction of reporter-positive cells with nuclear", "setting": "[3]", "result": "0.108 ± 0.093"}, {"measurement": "fraction of reporter-positive cells with nuclear", "setting": "[4]", "result": "0.284 ± 0.028"}]}
{"smiles": "CCCCOc1ccc(OCCCN2CCOCC2)cc1", "note": "[Pramoxine HCl]", "values": [{"measurement": "fraction", "setting": "[1]", "result": "0.089 ± 0.12"}, {"measurement": "fraction", "setting": "[2]", "result": "0.984 ± 0.027"}, {"measurement": "fraction of reporter-positive cells with nuclear", "setting": "[3]", "result": "0.127 ± 0.11"}, {"measurement": "fraction of reporter-positive cells with nuclear", "setting": "[4]", "result": "0.203 ± 0.065"}]}
{"smiles": "Nc1nccs1", "note": "[Aminothiazole]", "values": [{"measurement": "fraction", "setting": "[1]", "result": "0.106 ± 0.15"}, {"measurement": "fraction", "setting": "[2]", "result": "0.989 ± 0.018"}, {"measurement": "fraction of reporter-positive cells with nuclear", "setting": "[3]", "result": "0.137 ± 0.11"}, {"measurement": "fraction of reporter-positive cells with nuclear", "setting": "[4]", "result": "0.212 ± 0.088"}]}
{"smiles": "CN(C)CCOC(C)(c1ccccc1)c1ccccn1", "note": "(stereo not given) [Doxylamine Succinate]", "values": [{"measurement": "fraction", "setting": "[1]", "result": "0.0812 ± 0.12"}, {"measurement": "fraction", "setting": "[2]", "result": "0.991 ± 0.016"}, {"measurement": "fraction of reporter-positive cells with nuclear", "setting": "[3]", "result": "0.117 ± 0.099"}, {"measurement": "fraction of reporter-positive cells with nuclear", "setting": "[4]", "result": "0.207 ± 0.067"}]}
{"smiles": "CCC[C@@H]1C[C@@H](C(=O)N[C@@H]([C@H]2O[C@H](SC)[C@H](O)[C@@H](O)[C@H]2O)[C@@H](C)O)N(C)C1", "note": "[Lincomycin hydrochloride (Lincocin)]", "values": [{"measurement": "fraction", "setting": "[1]", "result": "0.1 ± 0.14"}, {"measurement": "fraction", "setting": "[2]", "result": "0.998 ± 0.0034"}, {"measurement": "fraction of reporter-positive cells with nuclear", "setting": "[3]", "result": "0.0948 ± 0.032"}, {"measurement": "fraction of reporter-positive cells with nuclear", "setting": "[4]", "result": "0.218 ± 0.035"}]}
{"smiles": "CC(=O)NC[C@H]1CN(c2ccc(N3CCOCC3)c(F)c2)C(=O)O1", "note": "[Linezolid (Zyvox)]", "values": [{"measurement": "fraction", "setting": "[1]", "result": "0.106 ± 0.12"}, {"measurement": "fraction", "setting": "[2]", "result": "0.9985 ± 0.0026"}, {"measurement": "fraction of reporter-positive cells with nuclear", "setting": "[3]", "result": "0.106 ± 0.052"}, {"measurement": "fraction of reporter-positive cells with nuclear", "setting": "[4]", "result": "0.204 ± 0.077"}]}
{"smiles": "CN(C)CCC(c1ccc(Cl)cc1)c1ccccn1", "note": "(stereo not given) [Chlorpheniramine Maleate]", "values": [{"measurement": "fraction", "setting": "[1]", "result": "0.0526 ± 0.067"}, {"measurement": "fraction", "setting": "[2]", "result": "0.996 ± 0.0069"}, {"measurement": "fraction of reporter-positive cells with nuclear", "setting": "[3]", "result": "0.106 ± 0.088"}, {"measurement": "fraction of reporter-positive cells with nuclear", "setting": "[4]", "result": "0.235 ± 0.076"}]}
{"smiles": "C[C@H]1O[C@@H](n2cc(F)c(=O)[nH]c2=O)[C@H](O)[C@@H]1O", "note": "[Doxifluridine]", "values": [{"measurement": "fraction", "setting": "[1]", "result": "0.144 ± 0.22"}, {"measurement": "fraction", "setting": "[2]", "result": "0.992 ± 0.013"}, {"measurement": "fraction of reporter-positive cells with nuclear", "setting": "[3]", "result": "0.105 ± 0.063"}, {"measurement": "fraction of reporter-positive cells with nuclear", "setting": "[4]", "result": "0.226 ± 0.07"}]}
